Patent EP0504914A2
No constants are given. Whether binding was seen depends on the method and setting. Some entries that bind do so weakly or less than the wild type.

By UniProt entry, the sequences of proteins in these tests, tags left out. Residues count along the entry.
UniProt P04629, residues 33-796: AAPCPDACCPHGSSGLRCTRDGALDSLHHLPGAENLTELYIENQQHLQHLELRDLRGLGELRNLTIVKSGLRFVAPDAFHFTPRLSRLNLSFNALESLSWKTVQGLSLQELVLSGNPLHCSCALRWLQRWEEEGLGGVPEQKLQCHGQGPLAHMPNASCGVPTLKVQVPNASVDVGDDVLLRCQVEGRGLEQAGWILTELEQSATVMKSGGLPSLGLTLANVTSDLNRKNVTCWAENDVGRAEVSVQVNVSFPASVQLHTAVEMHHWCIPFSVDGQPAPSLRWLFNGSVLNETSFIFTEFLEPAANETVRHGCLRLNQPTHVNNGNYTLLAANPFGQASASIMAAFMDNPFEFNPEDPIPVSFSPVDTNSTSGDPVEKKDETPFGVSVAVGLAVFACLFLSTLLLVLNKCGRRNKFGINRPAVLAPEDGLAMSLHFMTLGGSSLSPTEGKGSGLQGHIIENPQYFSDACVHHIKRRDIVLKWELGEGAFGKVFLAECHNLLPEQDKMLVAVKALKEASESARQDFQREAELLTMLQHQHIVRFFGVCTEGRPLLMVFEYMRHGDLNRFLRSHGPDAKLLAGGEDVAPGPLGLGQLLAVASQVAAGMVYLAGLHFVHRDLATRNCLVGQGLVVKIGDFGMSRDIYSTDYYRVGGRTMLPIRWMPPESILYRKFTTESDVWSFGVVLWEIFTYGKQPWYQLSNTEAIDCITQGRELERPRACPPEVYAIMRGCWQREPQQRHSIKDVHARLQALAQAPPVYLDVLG
UniProt P01139, residues 122-241: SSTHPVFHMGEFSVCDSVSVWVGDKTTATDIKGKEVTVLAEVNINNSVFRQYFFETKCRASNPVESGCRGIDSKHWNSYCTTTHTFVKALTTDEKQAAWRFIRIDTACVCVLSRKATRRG

How the values were obtained:
[1] = biological target: human trk proto-oncogene product gp140^trk (human) (UniProt P04629); test: [125I]-βNGF binding to cells
[2] = biological target: human trk proto-oncogene product gp140^trk (human) (UniProt P04629); test: competition with [125I]-NT-3 on E25-48 cells
[3] = biological target: human trk proto-oncogene product gp140^trk (human) (UniProt P04629); test: [125I]-βNGF (1 nM) binding to E25-427 and E25-48 cells at 4°C
[4] = biological target: human trk proto-oncogene product gp140^trk (human) (UniProt P04629); test: [125I]-NGF binding to Sf9 cells
[5] = biological target: human trk proto-oncogene product gp140^trk (human) (UniProt P04629); test: chemical cross-linking of [125I]-NGF to E25-427 and E25-48 cells, immunoprecipitation with anti-trk antiserum
[6] = biological target: human trk proto-oncogene product gp140^trk (human) (UniProt P04629); test: 0.1 nM [125I]-NGF on E25-42 cells, tested for competition by XNT-4

Measured: binding

murine 2.5S NGF (βNGF) (from UniProt P01139 122-241) (ligand)
binds: all assays above
